Assay results: patent publication US20130001162A1, “Apparatus, System, and Method for Forward Osmosis in Water Reuse” (priority 2011, published 2013)

Experiment: Rejection of spiked organic micropollutants by submerged plate and frame FO membrane, SWWE feed, seawater draw solution
Conditions: SWWE feed, seawater draw solution, calculated with equation 3

In the case of `CC(C)(c1ccc(O)cc1)c1ccc(O)cc1` [Bisphenol A], the “Rejection by FO membrane” value is reported as 8-39%.

Same assay, conditions: diluted seawater draw solution after FO, composite sample 3rd and 4th day of cycles

Compared with `C1COCCO1` [1,4-dioxane], `C#C[C@]1(O)CC[C@H]2[C@@H]3CCc4cc(O)ccc4[C@H]3CC[C@@]21C` [17α-ethynilestradiol] is 2.9-fold lower in “concentration, DS diluted” value: 4.3 µg/L for the first, 1.5 µg/L for the second.

`CC(=O)Nc1ccc(O)cc1` [Acetaminophen] and `CC(C)(c1ccc(O)cc1)c1ccc(O)cc1` [Bisphenol A] are within 1.5-fold of each other in “concentration, DS diluted” value: 5.9 µg/L for the first, 7.0 µg/L for the second.

`Cn1c(=O)c2c(ncn2C)n(C)c1=O` [Caffeine] and `Cc1ncc([N+](=O)[O-])n1CCO` [Metronidazole] are within 1.5-fold of each other in “concentration, DS diluted” value: 3.2 µg/L for the first, 4.1 µg/L for the second.

First: NC(=O)N1c2ccccc2C=Cc2ccccc21 [Carbamazepine]
Second: CC(C(=O)O)c1cccc(Oc2ccccc2)c1 (stereo not drawn) [Fenoprofen]
The “concentration, DS diluted” value of the first is 3.7-fold higher: 2.5 µg/L for the first, 0.67 µg/L for the second.

`Cc1ccc(C)c(OCCCC(C)(C)C(=O)O)c1` [Gemfibrozil] and `COc1ccc2cc([C@H](C)C(=O)O)ccc2c1` [Naproxen] are the same in “concentration, DS diluted” value: 0.62 µg/L for the first, 0.62 µg/L for the second.

In the case of `CC(C(=O)O)c1cccc(C(=O)c2ccccc2)c1` (stereo not drawn) [Ketoprofen], the “concentration, DS diluted” value is reported as 0.39 µg/L.
